No constants are given. Whether binding was seen depends on the method and setting. In cells and extracts the contact can be indirect. Some binding calls cover weakened binding; strength is not graded here. For some assays here: Tags and fused reporters may be left off the sequences shown.

Sequences of proteins named here, by UniProt entry; tags and fusion partners are left off. Residues count along the entry.
UniProt P56726, residues 33-793: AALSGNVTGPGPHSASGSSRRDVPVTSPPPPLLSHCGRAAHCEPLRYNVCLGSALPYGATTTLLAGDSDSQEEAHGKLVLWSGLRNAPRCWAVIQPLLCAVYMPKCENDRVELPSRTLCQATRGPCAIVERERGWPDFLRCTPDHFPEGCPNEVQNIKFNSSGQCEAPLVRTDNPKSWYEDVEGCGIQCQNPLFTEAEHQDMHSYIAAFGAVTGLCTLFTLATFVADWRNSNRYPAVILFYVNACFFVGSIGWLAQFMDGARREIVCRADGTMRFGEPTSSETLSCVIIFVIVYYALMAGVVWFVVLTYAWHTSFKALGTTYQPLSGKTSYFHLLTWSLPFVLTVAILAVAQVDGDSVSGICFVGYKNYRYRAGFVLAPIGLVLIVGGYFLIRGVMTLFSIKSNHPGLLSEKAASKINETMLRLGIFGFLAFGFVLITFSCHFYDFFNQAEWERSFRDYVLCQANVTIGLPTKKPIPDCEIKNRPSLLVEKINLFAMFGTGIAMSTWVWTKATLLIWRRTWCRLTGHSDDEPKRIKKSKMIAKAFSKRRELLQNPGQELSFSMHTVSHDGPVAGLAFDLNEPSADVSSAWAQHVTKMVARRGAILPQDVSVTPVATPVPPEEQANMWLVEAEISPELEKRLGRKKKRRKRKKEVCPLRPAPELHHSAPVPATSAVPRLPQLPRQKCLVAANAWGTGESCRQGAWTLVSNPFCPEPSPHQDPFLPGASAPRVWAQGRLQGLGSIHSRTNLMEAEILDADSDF

For 1 substance, binding results are on record in paper PMC7181751.

In assay [1] the target is T1, mouse Ptch2, Myc-tagged (pCMV6-mPtch2-MycDDK) (mouse) (UniProt O35595).
T1 sequence: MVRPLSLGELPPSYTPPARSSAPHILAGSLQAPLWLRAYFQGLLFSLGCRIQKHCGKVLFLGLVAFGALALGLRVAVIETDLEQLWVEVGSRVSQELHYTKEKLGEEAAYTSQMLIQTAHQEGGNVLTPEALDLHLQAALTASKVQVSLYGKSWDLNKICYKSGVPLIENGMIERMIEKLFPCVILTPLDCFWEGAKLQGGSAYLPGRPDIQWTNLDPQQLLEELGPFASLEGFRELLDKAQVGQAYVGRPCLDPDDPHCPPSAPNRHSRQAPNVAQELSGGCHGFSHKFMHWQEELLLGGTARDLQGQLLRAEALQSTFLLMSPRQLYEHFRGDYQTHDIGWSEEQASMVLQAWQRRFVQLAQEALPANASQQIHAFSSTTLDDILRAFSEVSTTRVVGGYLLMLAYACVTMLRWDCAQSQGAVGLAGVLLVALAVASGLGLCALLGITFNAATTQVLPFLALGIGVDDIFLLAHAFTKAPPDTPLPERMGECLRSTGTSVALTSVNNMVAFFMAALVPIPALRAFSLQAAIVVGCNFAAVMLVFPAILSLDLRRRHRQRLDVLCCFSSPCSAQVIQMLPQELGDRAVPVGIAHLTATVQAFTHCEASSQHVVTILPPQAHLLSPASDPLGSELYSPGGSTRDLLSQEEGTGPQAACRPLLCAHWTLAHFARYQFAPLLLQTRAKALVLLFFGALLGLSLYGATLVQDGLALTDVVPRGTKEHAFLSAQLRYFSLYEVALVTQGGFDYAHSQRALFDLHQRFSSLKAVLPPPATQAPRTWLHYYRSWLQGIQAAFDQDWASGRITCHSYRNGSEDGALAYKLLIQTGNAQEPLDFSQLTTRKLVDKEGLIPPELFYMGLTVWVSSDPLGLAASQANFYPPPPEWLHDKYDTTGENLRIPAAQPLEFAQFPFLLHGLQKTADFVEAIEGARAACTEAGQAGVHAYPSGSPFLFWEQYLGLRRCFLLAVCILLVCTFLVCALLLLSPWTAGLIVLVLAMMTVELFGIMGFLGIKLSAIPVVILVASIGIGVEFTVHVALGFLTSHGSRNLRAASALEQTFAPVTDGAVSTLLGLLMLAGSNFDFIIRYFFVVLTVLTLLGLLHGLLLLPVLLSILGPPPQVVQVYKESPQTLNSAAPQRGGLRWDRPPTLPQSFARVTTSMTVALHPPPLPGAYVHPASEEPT
As to the kind of experiment: co-IP; NIH3T3/Cas9 Ptch1 KO cells transfected with Myc-tagged Ptch2, unstimulated (no Shh); IP of Ptch2 and reciprocal IP with antibody against endogenous Gas1, Western blot; lysis in 50 mM HEPES, 150 mM NaCl, 10% glycerol, 1% Nonidet P-40, 1 mM EDTA; protein A/G-agarose.

The target in assay [2] is T2, Gas1 (Growth arrest-specific gene 1), endogenous (mouse (endogenous in NIH3T3)) (UniProt Q01721).
T2 sequence: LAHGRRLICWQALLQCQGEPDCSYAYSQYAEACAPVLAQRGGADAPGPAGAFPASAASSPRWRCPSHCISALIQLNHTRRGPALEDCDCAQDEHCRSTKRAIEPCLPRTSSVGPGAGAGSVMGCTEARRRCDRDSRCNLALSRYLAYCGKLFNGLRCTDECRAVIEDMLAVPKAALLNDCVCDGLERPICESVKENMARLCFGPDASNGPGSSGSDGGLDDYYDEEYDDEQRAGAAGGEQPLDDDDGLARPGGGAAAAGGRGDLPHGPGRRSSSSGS
Described as above.

In the case of “Smoothened (Smo), endogenous (from UniProt P56726 33-793) (receptor)”, the values for the binding entry in assay [1] and in assay [2] were “binds” and “no binding”, respectively.
